# According to the supplement of paper PMC6411743:
# Sequences of proteins named here, by UniProt entry; tags and fusion partners are left off. A change or cut given only in a name is not applied to a line headed by its entry.
# UniProt Q9UDR5: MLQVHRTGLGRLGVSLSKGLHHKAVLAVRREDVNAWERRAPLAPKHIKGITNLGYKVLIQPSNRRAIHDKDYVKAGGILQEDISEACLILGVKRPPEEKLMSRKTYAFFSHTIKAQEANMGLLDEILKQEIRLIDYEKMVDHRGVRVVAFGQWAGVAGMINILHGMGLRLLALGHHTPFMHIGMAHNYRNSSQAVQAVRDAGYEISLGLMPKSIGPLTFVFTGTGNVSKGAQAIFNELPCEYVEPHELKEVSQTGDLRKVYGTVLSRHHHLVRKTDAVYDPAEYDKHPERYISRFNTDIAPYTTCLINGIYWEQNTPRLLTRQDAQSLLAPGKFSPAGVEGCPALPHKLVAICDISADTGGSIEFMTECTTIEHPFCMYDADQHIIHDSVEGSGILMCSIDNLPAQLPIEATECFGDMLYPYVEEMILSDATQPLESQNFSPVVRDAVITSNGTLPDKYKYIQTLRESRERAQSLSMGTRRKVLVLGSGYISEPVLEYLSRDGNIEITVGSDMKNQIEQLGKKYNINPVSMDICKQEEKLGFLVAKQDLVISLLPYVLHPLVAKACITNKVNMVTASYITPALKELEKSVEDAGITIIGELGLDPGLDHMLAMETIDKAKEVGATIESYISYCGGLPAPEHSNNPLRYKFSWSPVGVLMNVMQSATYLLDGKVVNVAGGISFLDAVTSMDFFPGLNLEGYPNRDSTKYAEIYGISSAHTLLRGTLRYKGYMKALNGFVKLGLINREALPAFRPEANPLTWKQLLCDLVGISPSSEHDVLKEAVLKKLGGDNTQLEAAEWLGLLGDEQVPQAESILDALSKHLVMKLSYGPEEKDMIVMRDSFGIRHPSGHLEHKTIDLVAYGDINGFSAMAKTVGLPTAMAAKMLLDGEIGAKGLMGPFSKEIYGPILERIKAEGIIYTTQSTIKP
# UniProt Q9UH62: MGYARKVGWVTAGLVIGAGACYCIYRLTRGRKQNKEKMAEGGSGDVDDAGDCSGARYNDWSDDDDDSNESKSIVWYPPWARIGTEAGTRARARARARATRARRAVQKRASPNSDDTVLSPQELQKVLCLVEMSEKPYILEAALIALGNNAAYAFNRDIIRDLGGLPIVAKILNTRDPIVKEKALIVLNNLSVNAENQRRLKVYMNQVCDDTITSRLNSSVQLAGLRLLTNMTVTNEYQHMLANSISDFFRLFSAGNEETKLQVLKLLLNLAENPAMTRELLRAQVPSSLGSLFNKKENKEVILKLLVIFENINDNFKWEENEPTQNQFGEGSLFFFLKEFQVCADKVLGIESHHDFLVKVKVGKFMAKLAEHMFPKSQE
# UniProt Q9UBP6: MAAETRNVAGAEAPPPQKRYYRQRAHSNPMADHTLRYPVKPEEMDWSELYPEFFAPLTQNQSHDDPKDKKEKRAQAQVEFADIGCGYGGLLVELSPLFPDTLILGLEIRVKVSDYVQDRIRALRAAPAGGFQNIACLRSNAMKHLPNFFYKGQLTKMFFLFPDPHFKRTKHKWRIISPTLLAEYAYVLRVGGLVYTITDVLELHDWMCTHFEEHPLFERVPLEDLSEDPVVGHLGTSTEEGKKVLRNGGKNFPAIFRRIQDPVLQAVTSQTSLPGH
# UniProt Q9P2D3: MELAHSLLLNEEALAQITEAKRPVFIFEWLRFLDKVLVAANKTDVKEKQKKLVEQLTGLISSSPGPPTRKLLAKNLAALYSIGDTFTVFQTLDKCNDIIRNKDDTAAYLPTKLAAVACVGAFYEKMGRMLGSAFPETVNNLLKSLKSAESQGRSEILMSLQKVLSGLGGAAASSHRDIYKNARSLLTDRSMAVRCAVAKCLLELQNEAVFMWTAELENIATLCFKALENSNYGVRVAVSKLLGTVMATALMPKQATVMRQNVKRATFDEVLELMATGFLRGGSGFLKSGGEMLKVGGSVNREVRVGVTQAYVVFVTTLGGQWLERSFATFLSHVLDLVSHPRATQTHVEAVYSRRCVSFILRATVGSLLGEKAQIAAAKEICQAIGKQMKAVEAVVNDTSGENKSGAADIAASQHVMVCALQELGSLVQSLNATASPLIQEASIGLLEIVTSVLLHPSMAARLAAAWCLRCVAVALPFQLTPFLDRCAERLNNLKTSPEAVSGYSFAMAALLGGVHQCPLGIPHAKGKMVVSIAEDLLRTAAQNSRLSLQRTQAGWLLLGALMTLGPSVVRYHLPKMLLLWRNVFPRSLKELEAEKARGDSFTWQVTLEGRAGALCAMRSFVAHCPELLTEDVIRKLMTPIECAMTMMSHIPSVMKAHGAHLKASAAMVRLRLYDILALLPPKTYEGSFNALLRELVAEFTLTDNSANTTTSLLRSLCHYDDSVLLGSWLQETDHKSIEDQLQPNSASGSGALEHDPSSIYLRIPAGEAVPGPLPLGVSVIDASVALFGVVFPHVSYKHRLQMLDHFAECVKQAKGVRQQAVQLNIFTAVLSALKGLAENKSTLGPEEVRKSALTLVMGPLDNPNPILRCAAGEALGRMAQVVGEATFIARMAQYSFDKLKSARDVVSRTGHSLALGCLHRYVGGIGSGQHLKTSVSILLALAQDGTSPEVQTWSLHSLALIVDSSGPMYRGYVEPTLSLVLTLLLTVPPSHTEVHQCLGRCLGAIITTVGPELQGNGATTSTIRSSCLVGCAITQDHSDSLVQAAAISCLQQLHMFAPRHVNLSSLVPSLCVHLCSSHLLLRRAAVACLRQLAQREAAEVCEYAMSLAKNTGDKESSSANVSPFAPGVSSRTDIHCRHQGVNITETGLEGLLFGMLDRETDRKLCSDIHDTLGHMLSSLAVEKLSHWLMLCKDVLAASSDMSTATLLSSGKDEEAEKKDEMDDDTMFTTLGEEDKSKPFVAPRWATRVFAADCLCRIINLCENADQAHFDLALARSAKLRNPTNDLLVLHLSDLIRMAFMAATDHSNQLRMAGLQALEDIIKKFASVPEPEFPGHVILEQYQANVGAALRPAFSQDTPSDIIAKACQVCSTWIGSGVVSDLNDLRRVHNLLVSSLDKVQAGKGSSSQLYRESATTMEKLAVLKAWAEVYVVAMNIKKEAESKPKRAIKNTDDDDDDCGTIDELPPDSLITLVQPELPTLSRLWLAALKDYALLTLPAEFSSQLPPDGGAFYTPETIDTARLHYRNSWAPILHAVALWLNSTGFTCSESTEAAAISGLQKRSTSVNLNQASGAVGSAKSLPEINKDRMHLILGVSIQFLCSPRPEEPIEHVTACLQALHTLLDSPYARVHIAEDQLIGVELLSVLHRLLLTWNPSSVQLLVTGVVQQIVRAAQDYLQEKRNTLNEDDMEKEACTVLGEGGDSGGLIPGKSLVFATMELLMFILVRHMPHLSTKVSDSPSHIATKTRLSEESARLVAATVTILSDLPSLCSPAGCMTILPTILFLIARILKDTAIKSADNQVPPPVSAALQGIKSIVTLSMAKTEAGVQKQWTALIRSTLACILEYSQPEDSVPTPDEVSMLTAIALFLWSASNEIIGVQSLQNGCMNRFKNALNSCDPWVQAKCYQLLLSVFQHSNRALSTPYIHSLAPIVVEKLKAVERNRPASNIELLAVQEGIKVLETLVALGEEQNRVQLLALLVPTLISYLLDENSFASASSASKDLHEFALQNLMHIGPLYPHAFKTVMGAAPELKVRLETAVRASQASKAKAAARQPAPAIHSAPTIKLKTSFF
# UniProt Q9P2I0: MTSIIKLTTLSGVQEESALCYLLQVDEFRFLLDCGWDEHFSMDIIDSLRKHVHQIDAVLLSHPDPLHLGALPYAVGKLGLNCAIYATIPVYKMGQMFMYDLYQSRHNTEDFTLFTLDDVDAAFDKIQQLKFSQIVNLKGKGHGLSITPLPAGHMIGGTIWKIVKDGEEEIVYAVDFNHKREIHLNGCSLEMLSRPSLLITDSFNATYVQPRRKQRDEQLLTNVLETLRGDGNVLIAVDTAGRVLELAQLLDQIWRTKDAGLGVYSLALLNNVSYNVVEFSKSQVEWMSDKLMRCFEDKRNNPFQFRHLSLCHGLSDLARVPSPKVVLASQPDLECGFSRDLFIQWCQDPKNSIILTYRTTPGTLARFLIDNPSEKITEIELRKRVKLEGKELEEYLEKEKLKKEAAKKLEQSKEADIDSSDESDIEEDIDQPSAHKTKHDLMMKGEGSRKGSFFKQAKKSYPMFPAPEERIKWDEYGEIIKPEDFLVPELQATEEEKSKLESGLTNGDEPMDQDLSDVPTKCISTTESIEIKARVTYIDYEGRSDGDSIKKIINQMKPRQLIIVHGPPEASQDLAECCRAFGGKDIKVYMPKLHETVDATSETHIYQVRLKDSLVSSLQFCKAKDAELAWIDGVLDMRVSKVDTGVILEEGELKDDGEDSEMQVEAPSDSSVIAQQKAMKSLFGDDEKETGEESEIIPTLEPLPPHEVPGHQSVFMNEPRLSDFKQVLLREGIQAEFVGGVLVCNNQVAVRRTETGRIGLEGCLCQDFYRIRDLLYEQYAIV
# UniProt Q9Y237, whole entry: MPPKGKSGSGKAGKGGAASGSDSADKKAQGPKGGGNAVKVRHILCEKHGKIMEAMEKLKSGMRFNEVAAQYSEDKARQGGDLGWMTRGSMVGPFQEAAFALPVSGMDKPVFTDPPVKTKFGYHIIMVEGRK
# UniProt Q9UNI6, whole entry: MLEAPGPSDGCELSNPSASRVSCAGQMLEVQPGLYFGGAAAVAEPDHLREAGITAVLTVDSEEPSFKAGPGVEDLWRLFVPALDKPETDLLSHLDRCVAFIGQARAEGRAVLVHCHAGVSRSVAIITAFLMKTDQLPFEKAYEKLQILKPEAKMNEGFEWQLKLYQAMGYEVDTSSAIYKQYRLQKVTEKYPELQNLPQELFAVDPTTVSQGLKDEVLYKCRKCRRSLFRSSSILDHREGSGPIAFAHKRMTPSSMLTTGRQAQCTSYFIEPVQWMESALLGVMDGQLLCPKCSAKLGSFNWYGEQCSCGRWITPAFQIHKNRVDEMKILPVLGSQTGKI
# UniProt Q9P2A4: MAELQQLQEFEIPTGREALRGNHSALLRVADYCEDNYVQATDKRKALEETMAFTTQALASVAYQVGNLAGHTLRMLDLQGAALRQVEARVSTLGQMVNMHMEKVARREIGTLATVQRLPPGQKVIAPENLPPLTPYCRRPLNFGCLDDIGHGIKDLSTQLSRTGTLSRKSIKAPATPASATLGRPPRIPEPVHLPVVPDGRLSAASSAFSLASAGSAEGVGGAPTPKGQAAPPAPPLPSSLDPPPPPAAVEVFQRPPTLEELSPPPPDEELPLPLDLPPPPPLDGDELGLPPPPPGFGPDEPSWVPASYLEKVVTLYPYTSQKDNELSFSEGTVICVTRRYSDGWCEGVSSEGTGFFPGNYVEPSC
# UniProt Q9UK58: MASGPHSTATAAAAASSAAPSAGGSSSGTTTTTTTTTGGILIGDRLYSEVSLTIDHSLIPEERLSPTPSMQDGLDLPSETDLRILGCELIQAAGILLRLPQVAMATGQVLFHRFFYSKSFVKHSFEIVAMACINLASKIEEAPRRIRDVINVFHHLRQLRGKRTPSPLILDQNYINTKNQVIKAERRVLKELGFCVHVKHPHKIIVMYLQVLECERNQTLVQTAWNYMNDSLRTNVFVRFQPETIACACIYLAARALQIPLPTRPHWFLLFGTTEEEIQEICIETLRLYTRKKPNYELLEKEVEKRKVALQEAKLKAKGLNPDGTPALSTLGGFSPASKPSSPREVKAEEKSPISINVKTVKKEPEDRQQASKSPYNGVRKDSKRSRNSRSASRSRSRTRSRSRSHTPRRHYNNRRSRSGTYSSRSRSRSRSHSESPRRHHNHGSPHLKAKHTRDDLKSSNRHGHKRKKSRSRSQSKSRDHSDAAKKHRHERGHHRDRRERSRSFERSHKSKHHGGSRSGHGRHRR
# UniProt Q9UQR1: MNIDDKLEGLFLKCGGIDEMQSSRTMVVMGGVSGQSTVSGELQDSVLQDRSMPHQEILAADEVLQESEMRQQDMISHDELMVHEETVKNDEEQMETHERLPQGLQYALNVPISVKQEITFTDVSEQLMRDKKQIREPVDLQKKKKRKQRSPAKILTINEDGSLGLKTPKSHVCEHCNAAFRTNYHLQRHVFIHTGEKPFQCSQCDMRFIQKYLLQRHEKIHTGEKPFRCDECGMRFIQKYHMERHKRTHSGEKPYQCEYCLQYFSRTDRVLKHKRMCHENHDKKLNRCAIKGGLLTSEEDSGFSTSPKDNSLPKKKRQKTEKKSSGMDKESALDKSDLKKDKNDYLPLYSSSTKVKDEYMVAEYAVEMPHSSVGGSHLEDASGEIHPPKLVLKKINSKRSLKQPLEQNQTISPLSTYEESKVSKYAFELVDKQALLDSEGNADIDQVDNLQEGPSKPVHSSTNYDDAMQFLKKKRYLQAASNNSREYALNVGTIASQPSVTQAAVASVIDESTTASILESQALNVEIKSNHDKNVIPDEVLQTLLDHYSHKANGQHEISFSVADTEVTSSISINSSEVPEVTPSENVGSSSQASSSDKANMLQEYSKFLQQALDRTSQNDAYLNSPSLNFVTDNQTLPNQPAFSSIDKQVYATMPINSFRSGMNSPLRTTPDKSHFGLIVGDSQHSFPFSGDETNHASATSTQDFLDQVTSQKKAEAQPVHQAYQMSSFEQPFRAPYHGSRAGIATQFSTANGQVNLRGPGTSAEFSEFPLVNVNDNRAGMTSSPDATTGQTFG
# ± gives the standard deviation of the averaged measurements. The list shows a part of the results, in another mix than the full data.
# Compound: Nc1ncnc2c1ncn2[C@@H]1O[C@H](COP(=O)(O)OP(=O)(O)OP(=O)(O)O)[C@@H](O)[C@H]1O [adenosine triphosphate]
# Test: NP40-soluble protein abundance relative to vehicle (solubility fold change) (ratio); higher = more soluble protein in presence of ATP
# Outline: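 Jurkat crude lysate (Dounce-homogenised) was treated with eight concentrations from 0.1 to 10 mM for 10 min at room temperature, then 3 min at 37 °C. It was solubilised with 0.8% NP40 and benzonase (60 min, 4 °C) and ultracentrifuged, and the supernatant was TMT-labelled for LC-MS/MS. Intensities were vsn-normalised, and the value is the fold change against the NP40-processed vehicle per replicate, from three independent experiments.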
Target,NP40-soluble protein abundance (concentration: 1mM),NP40-soluble protein abundance (concentration: 2mM),NP40-soluble protein abundance (concentration: 4mM),NP40-soluble protein abundance (concentration: 6mM),NP40-soluble protein abundance (concentration: 8mM),NP40-soluble protein abundance (concentration: 10mM)
TPX2 (UniProt Q9ULW0),1.17 ± 0.064,1.2 ± 0.021,1.25 ± 0.046,1.37 ± 0.035,1.35 ± 0.029,1.37 ± 0.054
AASS (UniProt Q9UDR5),1.03 ± 0.088,1.01 ± 0.046,1 ± 0.051,0.968 ± 0.082,1.02 ± 0.025,0.993 ± 0.021
UniProt Q9UHW5 and related entries,0.997 ± 0.074,1 ± 0.06,0.967 ± 0.085,0.957 ± 0.087,0.988 ± 0.076,0.993 ± 0.091
ARMCX3 (UniProt Q9UH62),0.946 ± 0.034,0.954 ± 0.066,0.956 ± 0.032,0.895 ± 0.09,0.9 ± 0.064,0.992 ± 0.01
METTL1 (UniProt Q9UBP6),0.978 ± 0.091,1.04 ± 0.056,0.988 ± 0.078,0.963 ± 0.14,0.975 ± 0.17,1.01 ± 0.13
PLAA (UniProt Q9Y263),0.979 ± 0.035,0.987 ± 0.049,0.967 ± 0.019,0.948 ± 0.075,0.95 ± 0.016,0.956 ± 0.032
UniProt Q9UP83 and related entries,0.981 ± 0.04,0.993 ± 0.058,0.955 ± 0.044,0.936 ± 0.068,0.924 ± 0.063,0.922 ± 0.04
SLC5A6 (UniProt Q9Y289),0.962 ± 0.025,0.944 ± 0.084,0.956 ± 0.021,0.9682 ± 0.0024,0.836 ± 0.035,0.931 ± 0.056
DRG1 (UniProt Q9Y295),1.01 ± 0.017,1 ± 0.032,0.971 ± 0.042,0.974 ± 0.086,0.987 ± 0.048,0.961 ± 0.024
UniProt Q9UKA9 and related entries,0.963 ± 0.045,1.01 ± 0.04,0.958 ± 0.053,0.978 ± 0.086,0.947 ± 0.049,0.972 ± 0.024
UBQLN1 (UniProt Q9UMX0),0.899 ± 0.082,0.913 ± 0.084,0.909 ± 0.057,0.921 ± 0.09,0.853 ± 0.035,0.796 ± 0.065
UniProt Q9UK76,0.884 ± 0.071,0.875 ± 0.06,0.902 ± 0.033,0.914 ± 0.047,0.817 ± 0.031,0.843 ± 0.061
UniProt Q9P2D3 and related entries,0.963 ± 0.021,0.975 ± 0.037,0.99 ± 0.017,0.939 ± 0.061,1.01 ± 0.032,0.996 ± 0.054
CPSF2 (UniProt Q9P2I0),1.08 ± 0.03,1.141 ± 0.011,1.19 ± 0.034,1.24 ± 0.014,1.27 ± 0.029,1.292 ± 0.011
POLK (UniProt Q9UBT6),0.964 ± 0.048,0.968 ± 0.056,1.04 ± 0.032,1.03 ± 0.05,1.02 ± 0.04,1.02 ± 0.062
UniProt Q9UBC3 and related entries,1.265 ± 0.011,1.48 ± 0.094,1.52 ± 0.059,1.44 ± 0.088,1.54 ± 0.23,1.61 ± 0.17
UniProt Q9UN86-2|Q9UN86,1.08 ± 0.048,1.13 ± 0.038,1.17 ± 0.038,1.33 ± 0.049,1.25 ± 0.025,1.29 ± 0.046

# Full records from above. Order of values: NP40-soluble protein abundance (concentration: 1mM)	NP40-soluble protein abundance (concentration: 2mM)	NP40-soluble protein abundance (concentration: 4mM)	NP40-soluble protein abundance (concentration: 6mM)	NP40-soluble protein abundance (concentration: 8mM)	NP40-soluble protein abundance (concentration: 10mM)
# ARMCX3 (UniProt Q9UH62) reads 0.946 ± 0.034	0.954 ± 0.066	0.956 ± 0.032	0.895 ± 0.09	0.9 ± 0.064	0.992 ± 0.01
# AASS (UniProt Q9UDR5) reads 1.03 ± 0.088	1.01 ± 0.046	1 ± 0.051	0.968 ± 0.082	1.02 ± 0.025	0.993 ± 0.021
# UniProt Q9UN86-2|Q9UN86 reads 1.08 ± 0.048	1.13 ± 0.038	1.17 ± 0.038	1.33 ± 0.049	1.25 ± 0.025	1.29 ± 0.046

# Going on with the list.

Target,NP40-soluble protein abundance (concentration: 1mM),NP40-soluble protein abundance (concentration: 2mM),NP40-soluble protein abundance (concentration: 4mM),NP40-soluble protein abundance (concentration: 6mM),NP40-soluble protein abundance (concentration: 8mM),NP40-soluble protein abundance (concentration: 10mM)
UniProt Q9UPT9 and related entries,0.963 ± 0.09,0.965 ± 0.068,0.918 ± 0.06,0.951 ± 0.071,0.976 ± 0.047,0.971 ± 0.025
UniProt Q9UEE5,1.19 ± 0.15,1.24 ± 0.093,1.15 ± 0.13,1.21 ± 0.11,1.15 ± 0.073,1.18 ± 0.06
UniProt Q9Y237 and related entries,0.937 ± 0.052,0.939 ± 0.05,0.916 ± 0.032,0.955 ± 0.018,0.927 ± 0.021,0.881 ± 0.054
SCML2 (UniProt Q9UQR0),1.13 ± 0.043,1.16 ± 0.024,1.21 ± 0.041,1.24 ± 0.036,1.21 ± 0.016,1.23 ± 0.017
UniProt Q9Y282 and related entries,0.945 ± 0.045,0.9761 ± 0.0061,0.956 ± 0.028,0.922 ± 0.037,0.952 ± 0.019,0.956 ± 0.025
DUSP12 (UniProt Q9UNI6),1.02 ± 0.1,1.02 ± 0.1,1.06 ± 0.042,1.05 ± 0.13,1.07 ± 0.077,1.07 ± 0.064
WARS2 (UniProt Q9UGM6),0.939 ± 0.09,1.03 ± 0.054,1.02 ± 0.04,1.09 ± 0.038,0.965 ± 0.095,1.04 ± 0.041
UniProt Q9P2A4 and related entries,1.05 ± 0.053,1.02 ± 0.052,1 ± 0.025,1.03 ± 0.027,1.022 ± 0.0094,1.02 ± 0.018
UniProt Q9UBU8-2,0.993 ± 0.054,1.02 ± 0.019,1.03 ± 0.022,1.07 ± 0.03,1.04 ± 0.03,1.04 ± 0.04
UniProt Q9UIS9 and related entries,1.05 ± 0.071,1.1 ± 0.08,1.16 ± 0.16,1.2 ± 0.14,1.19 ± 0.16,1.17 ± 0.12
Q9UBK7-2|Q9UNT1-2 (UniProt Q9UNT1+Q9UBK7),0.959 ± 0.039,0.989 ± 0.043,0.959 ± 0.052,0.955 ± 0.022,0.926 ± 0.046,0.924 ± 0.021
CCNL1 (UniProt Q9UK58),1.07 ± 0.15,0.989 ± 0.012,0.8513 ± 0.0047,0.842 ± 0.076,0.813 ± 0.068,0.849 ± 0.035
UniProt Q9UJ68 and related entries,0.993 ± 0.11,0.99 ± 0.11,0.96 ± 0.17,0.989 ± 0.13,0.92 ± 0.072,0.96 ± 0.099
DICER1 (UniProt Q9UPY3),0.995 ± 0.041,1.01 ± 0.026,0.991 ± 0.02,1 ± 0.052,1 ± 0.027,0.972 ± 0.04
ZNF148 (UniProt Q9UQR1),0.98 ± 0.05,1.01 ± 0.014,0.978 ± 0.031,1.04 ± 0.063,0.985 ± 0.04,0.95 ± 0.0098
MAN1B1 (UniProt Q9UKM7),1.04 ± 0.044,1.06 ± 0.059,1.1 ± 0.084,1.06 ± 0.073,1.12 ± 0.062,1.09 ± 0.098
